Assay results reported in US20080050378A1.
Results are given in words; binding and its absence hold for the method and conditions named. In cells and extracts the contact can be indirect. Some binding calls cover weakened binding; strength is not graded here.

Sequences of proteins named here, by UniProt entry; tags and fusion partners are left off. A change or cut given only in a name is not applied to a line headed by its entry.
UniProt P52732: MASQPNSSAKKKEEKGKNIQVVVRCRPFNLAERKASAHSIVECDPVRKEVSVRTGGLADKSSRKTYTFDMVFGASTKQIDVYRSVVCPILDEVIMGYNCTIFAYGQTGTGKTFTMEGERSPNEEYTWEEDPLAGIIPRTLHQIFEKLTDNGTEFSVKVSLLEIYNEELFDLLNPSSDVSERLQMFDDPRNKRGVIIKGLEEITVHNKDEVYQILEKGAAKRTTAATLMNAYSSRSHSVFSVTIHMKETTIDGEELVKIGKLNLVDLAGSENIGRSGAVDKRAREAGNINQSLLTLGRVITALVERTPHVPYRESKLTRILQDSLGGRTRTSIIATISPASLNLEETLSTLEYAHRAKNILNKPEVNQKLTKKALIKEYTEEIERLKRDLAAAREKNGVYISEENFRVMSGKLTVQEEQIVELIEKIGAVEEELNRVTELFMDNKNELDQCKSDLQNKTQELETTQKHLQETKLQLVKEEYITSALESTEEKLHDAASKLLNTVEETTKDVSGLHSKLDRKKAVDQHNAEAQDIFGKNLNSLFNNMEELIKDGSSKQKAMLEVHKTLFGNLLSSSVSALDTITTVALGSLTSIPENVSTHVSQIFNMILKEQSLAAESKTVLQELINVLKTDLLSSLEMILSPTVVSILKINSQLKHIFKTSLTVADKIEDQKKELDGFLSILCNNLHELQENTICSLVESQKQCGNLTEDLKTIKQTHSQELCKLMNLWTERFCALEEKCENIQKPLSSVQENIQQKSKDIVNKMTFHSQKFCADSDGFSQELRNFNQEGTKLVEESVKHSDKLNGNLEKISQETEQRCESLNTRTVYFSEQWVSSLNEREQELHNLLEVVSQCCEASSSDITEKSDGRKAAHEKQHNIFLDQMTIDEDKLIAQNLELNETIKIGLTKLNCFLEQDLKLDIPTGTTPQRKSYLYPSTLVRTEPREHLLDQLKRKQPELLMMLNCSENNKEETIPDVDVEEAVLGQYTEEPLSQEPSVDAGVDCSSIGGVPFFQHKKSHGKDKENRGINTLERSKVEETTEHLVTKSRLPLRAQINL
UniProt O00425: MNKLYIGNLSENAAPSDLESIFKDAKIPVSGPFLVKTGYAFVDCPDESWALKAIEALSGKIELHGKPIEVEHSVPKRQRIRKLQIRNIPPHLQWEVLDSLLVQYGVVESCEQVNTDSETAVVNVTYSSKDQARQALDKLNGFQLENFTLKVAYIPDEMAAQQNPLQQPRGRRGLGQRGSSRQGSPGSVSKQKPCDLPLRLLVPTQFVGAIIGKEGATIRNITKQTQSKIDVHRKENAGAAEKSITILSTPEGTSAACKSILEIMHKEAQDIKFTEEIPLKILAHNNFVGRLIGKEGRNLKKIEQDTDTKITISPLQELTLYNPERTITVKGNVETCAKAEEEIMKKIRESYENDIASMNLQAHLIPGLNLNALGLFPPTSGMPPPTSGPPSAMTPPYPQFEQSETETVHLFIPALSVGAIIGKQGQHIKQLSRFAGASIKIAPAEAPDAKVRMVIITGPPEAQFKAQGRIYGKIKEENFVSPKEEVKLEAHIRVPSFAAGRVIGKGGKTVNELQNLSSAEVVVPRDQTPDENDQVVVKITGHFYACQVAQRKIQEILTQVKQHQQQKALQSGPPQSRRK

Assays:
[1] = molecular target: Flag-tagged KIF11 (human) (UniProt P52732); assay: reciprocal co-immunoprecipitation (anti-Flag M2 agarose / anti-myc agarose) and immunoblot, co-transfected A549 cells
[2] = molecular target: Flag-tagged KIF11 (human) (UniProt P52732); assay: reciprocal co-immunoprecipitation and immunoblot, co-transfected A549 cells (FIG. 1a)

binding [1]: binds
binding [2]: binds
Substance: myc-tagged KOC1 (from UniProt O00425 1-579)
